Our source for the binding values is publication PMC9527318.

Results are given in words; binding and its absence hold for the method and conditions named. In cells and extracts the contact can be indirect. Some entries that bind do so weakly or less than the wild type.

The assay addresses RelA/p65 (human (endogenous in EBV B cells)), Q04206. Nature of the assay: co-IP; lysates (RIPA buffer) of EBV B cells homozygous for the rs10499197-tagged non-risk TNFAIP3 haplotype, precleared with normal rabbit IgG and protein A/G beads, incubated with anti-RelA/p65 antibody for 16 h at 4°C; western blot with anti-RelA/p65 or anti-CEBPB antibody. Conditions: remark: other sources report otherwise.

B1: CCAAT/enhancer-binding protein beta (CEBPB), P17676 1-345 (protein)
chain: MQRLVAWDPACLPLPPPPPAFKSMEVANFYYEADCLAAAYGGKAAPAAPPAARPGPRPPAGELGSIGDHERAIDFSPYLEPLGAPQAPAPATATDTFEAAPPAPAPAPASSGQHHDFLSDLFSDDYGGKNCKKPAEYGYVSLGRLGAAKGALHPGCFAPLHPPPPPPPPPAELKAEPGFEPADCKRKEEAGAPGGGAGMAAGFPYALRAYLGYQAVPSGSSGSLSTSSSSSPPGTPSPADAKAPPTACYAGAAPAPSQVKSKAKKTVDKHSDEYKIRRERNNIAVRKSRDKAKMRNLETQHKVLELTAENERLQKKVEQLSRELSTLRNLFKQLPEPLLASSGHC
On to B1, for which the binding result was “binds”.
